Reference: PMC7819943, “Rice protein-binding microarrays: a tool to detect cis-acting elements near promoter regions in rice”
The other results are listed elsewhere or left out.

Sequences of proteins named here, by UniProt entry; tags and fusion partners are left off.
UniProt Q0JBA9, entry or part of it: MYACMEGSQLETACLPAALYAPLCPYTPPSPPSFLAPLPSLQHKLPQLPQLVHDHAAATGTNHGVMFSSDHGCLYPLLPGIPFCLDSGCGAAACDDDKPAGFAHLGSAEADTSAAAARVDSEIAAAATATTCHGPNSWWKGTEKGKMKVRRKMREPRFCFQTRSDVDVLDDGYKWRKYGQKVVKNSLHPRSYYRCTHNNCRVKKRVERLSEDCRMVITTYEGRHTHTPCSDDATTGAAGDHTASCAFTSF

Target: OsWRKY34 (Oryza sativa, UniProt Q0JBA9 1-250)
Assay: protein-binding microarray (RPBM); PBS, 2% BSA, 51.3 ng/ul salmon testes DNA, 50 uM zinc acetate, 200 nM TF, 25 C, 1 h; high values mean tight binding
Conditions: protein: recombinant; tags: N-terminal polyhistidine and DsRed monomer fusion (pET32a); label: CyDye5-dUTP incorporated in the synthesized complementary strand; 3' TTTTT single-stranded linker to array surface; dsDNA, one strand shown
Summary of the method: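 Binding signal here means per-feature fluorescence intensity in arbitrary units. The values were read on an Axon 4000B scanner after a custom Agilent array, double-stranded by primer extension with Cy5-dUTP, was incubated with 200 nM protein at 25 °C for 1 h in PBS with 2% BSA, salmon testes DNA and 50 µM zinc acetate, then washed. The proteins were transcription factors with an N-terminal polyhistidine tag and DsRed, expressed in E. coli BL21-CodonPlus and purified on Ni–NTA.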

Sequence | binding signal
CTCCTCCTCCTCGCGCAGACTTCGTTGCTCCTCGCTCGTTCGGAGTCACCTAGTGCAG | 8250 fluorescence intensity (a.u.)
TTATATGCATCGACTAGCTCAACCTATCAACTTAACTAATCGGAGTCACCTAGTGCAG | 9530 fluorescence intensity (a.u.)
CCTCCTTGTTGCGGTCGTCTTTCGCTCTATCTTCCTTGTCCGGAGTCACCTAGTGCAG | 11100 fluorescence intensity (a.u.)
AGCCGGCCTCCGCTCCCATCGGCTGCGCCTCTCTGCGTCACGGAGTCACCTAGTGCAG | 8320 fluorescence intensity (a.u.)
CCCGCCGCTCCATGCCTGACCAGTTCAACTCCACCAACTCCGGAGTCACCTAGTGCAG | 11000 fluorescence intensity (a.u.)
CTATGTCCAACGTTTGACCGTCCGTCTTATTTAAAATATTCGGAGTCACCTAGTGCAG | 8230 fluorescence intensity (a.u.)
GTAATTTAATGTTCATTATGGTGTTTCTTAATTGTTTTTTCGGAGTCACCTAGTGCAG | 9320 fluorescence intensity (a.u.)
GATGAGTGGTGATTGGTGAAGATATCTGGTGGTTTTGGGACGGAGTCACCTAGTGCAG | 8630 fluorescence intensity (a.u.)
TACTGCCTCTCTCTGACCCCATTGACCAACTCCGTTGACCCGGAGTCACCTAGTGCAG | 15800 fluorescence intensity (a.u.)
TCCATCTCCAAGTCCGGTGACTCAGTAATCACTTCGCACACGGAGTCACCTAGTGCAG | 8270 fluorescence intensity (a.u.)
ACTTTCATCACTTCGGAAGTATTTTTCTTGCATCTCTTGACGGAGTCACCTAGTGCAG | 8480 fluorescence intensity (a.u.)
CCGCCCGGGCCCCGCGCCCACTGCCCCGCCGCCTCCCGCCCGGAGTCACCTAGTGCAG | 10500 fluorescence intensity (a.u.)
TGAGTAGGGTTAAGGTGTCTTCGTGTGTATTTTGTTCAATCGGAGTCACCTAGTGCAG | 8600 fluorescence intensity (a.u.)
CTACCTGTATAAAAACCCGCTTGCTAGTTCATTTCCCACACGGAGTCACCTAGTGCAG | 9250 fluorescence intensity (a.u.)
GATGGGTCAAACTCTCGTCTGACAACGTGATTCGCTCGCTCGGAGTCACCTAGTGCAG | 8230 fluorescence intensity (a.u.)
CTAATGTGGTCACTGTTTTTATTACACATTATTATCGGTTCGGAGTCACCTAGTGCAG | 10000 fluorescence intensity (a.u.)
TACCGTCGTGCTCCATCAATTCCATCTCCACGTGTTATTGCGGAGTCACCTAGTGCAG | 10900 fluorescence intensity (a.u.)
GCCACCATGCACCATCCCTGGCCCTCGTGTCTCCTCAATACGGAGTCACCTAGTGCAG | 9180 fluorescence intensity (a.u.)
TTGTCATGATTTTCTCATTTTCCCCTATGAGTTTTTACATCGGAGTCACCTAGTGCAG | 8540 fluorescence intensity (a.u.)
ATGTGTCCGTGTCCATCCATATCCACGCCGGGCACAGCAACGGAGTCACCTAGTGCAG | 9020 fluorescence intensity (a.u.)
GCAAGCGCATCGCATGTTGTACAGTACAAAATGGCCACCCCGGAGTCACCTAGTGCAG | 8230 fluorescence intensity (a.u.)

Sequence | binding signal
AGGCTTTAGTGCTGCACACTCCAGTACTCCATCCAGCACCCGGAGTCACCTAGTGCAG | 8380 fluorescence intensity (a.u.)
GAGATTGGGGTTTTGATGACGGGGAATTGATCTCGATCGTCGGAGTCACCTAGTGCAG | 9400 fluorescence intensity (a.u.)
GAAACGAAACGCGTTTCTTCATTTGGTTAATTTTGCGCGTCGGAGTCACCTAGTGCAG | 8480 fluorescence intensity (a.u.)
GTTTGACCGGATATTGGATGGGGTTTTCGGACACGAATGACGGAGTCACCTAGTGCAG | 8790 fluorescence intensity (a.u.)
TCACCAGATCTTTTCAATGGTTTGCTTTGCTTGCTTTGCACGGAGTCACCTAGTGCAG | 9360 fluorescence intensity (a.u.)
ATGCCTATCATATGCGCATCAAATTTAGACCTAAATTTCCCGGAGTCACCTAGTGCAG | 8520 fluorescence intensity (a.u.)
CTATTTCACTTACGACAATTTTTTTGTGGCTCTTATATTTCGGAGTCACCTAGTGCAG | 9510 fluorescence intensity (a.u.)
ACTTGCTCTGACCATGACTGCCGTGTCCTACACATTAATCCGGAGTCACCTAGTGCAG | 8180 fluorescence intensity (a.u.)
TGTCATGGGACCAGAATTGCACGGTTTTGTATAGTTTAGGCGGAGTCACCTAGTGCAG | 8150 fluorescence intensity (a.u.)
GCGACACATGCCGCGCAGGCCCAGCGACCGGCGGCGCCGCCGGAGTCACCTAGTGCAG | 8080 fluorescence intensity (a.u.)
TGTTGCATTCTAGTTGAAGTCTTCATAAACACCTTATTTGCGGAGTCACCTAGTGCAG | 8250 fluorescence intensity (a.u.)
CTTGTATCTTGAGCATCATTTGTGTTTTCAGGTTTCTCTTCGGAGTCACCTAGTGCAG | 8100 fluorescence intensity (a.u.)
TCGTGTTCGTGTTGGTTCCTACCTCTCCAAGTCTCTACAACGGAGTCACCTAGTGCAG | 11000 fluorescence intensity (a.u.)
GAGCACCAACACTCACGCATTCCTTCCTACTCCGCGAGATCGGAGTCACCTAGTGCAG | 8720 fluorescence intensity (a.u.)
GGTCTCTTGCTTCTTACAATTTACCACTGGTTTTAGATTTCGGAGTCACCTAGTGCAG | 10300 fluorescence intensity (a.u.)
TGCTCCCGTCCCGCGCGCGCGCCCATCTCCCCGCCTATAACGGAGTCACCTAGTGCAG | 8250 fluorescence intensity (a.u.)
TCCCTTCCCTGTTCCTGGCGACGTGTCACCTTCTTATTCGCGGAGTCACCTAGTGCAG | 8050 fluorescence intensity (a.u.)
TATATAACACAAAATAAGATCAACGTTGACCCGGGTTGACCGGAGTCACCTAGTGCAG | 10200 fluorescence intensity (a.u.)
ATTGTTATATTTTGCGACGGAGCGAGTACCTTGTAACTAACGGAGTCACCTAGTGCAG | 8050 fluorescence intensity (a.u.)
ATTTTTGTGTGAATGACAGATGGTTCCAGATATATTTTTTCGGAGTCACCTAGTGCAG | 8120 fluorescence intensity (a.u.)
CGGATGGTCAAACGTTGGTCAAAAAGTCAACGGCGTCATACGGAGTCACCTAGTGCAG | 19600 fluorescence intensity (a.u.)

Sequence | binding signal
TCTCCTCTCTCTTCTCTTCTCTCTCTCCGATCCGGATCTTCGGAGTCACCTAGTGCAG | 8550 fluorescence intensity (a.u.)
TCCATTATCACGTGATTAATTAAGTATTAGCTATTTTTTTCGGAGTCACCTAGTGCAG | 8220 fluorescence intensity (a.u.)
TCCGTGCTCGCGCTGCCTGCGGCTCGCCCTCACACCTACGCGGAGTCACCTAGTGCAG | 8310 fluorescence intensity (a.u.)
ATTGCACCTACCTGACAAGTTTTTTTATCGGCAATGCAATCGGAGTCACCTAGTGCAG | 8930 fluorescence intensity (a.u.)
GAGGCTGGGCTGGGCGGGCGTATCGTTCCTGCTCCCGGAGCGGAGTCACCTAGTGCAG | 25400 fluorescence intensity (a.u.)
CAGAGCGCGTAACCGCCGCCTCGGGCCATTTCTCACACAACGGAGTCACCTAGTGCAG | 8540 fluorescence intensity (a.u.)
GATCTCTCCACTGGGCCCACCTCGTCTCTCGTCATTCGCCCGGAGTCACCTAGTGCAG | 12100 fluorescence intensity (a.u.)
TTCTGGAATTAACAGCCACACCCTTCGCACATTTCTCTTTCGGAGTCACCTAGTGCAG | 10600 fluorescence intensity (a.u.)
CTGTCTCTCTCCGAAATATCATTTCGTTTTTTAATCATCTCGGAGTCACCTAGTGCAG | 8700 fluorescence intensity (a.u.)
AACCCTAGCTAAAACCCTACGCTTCCGCCGCCGCGAGCGCCGGAGTCACCTAGTGCAG | 8120 fluorescence intensity (a.u.)
GCTATCGCTAGACCGTTATTCCGCTGCTGTTTTCTTTTCTCGGAGTCACCTAGTGCAG | 12100 fluorescence intensity (a.u.)
GTTGTCGAGTATTTTCTGCTTATGTACGCCTCAAACCGACCGGAGTCACCTAGTGCAG | 12600 fluorescence intensity (a.u.)
TCTCTTGTGCTTTCAGAATTTTTCTTGTGTGTTTTAGCCACGGAGTCACCTAGTGCAG | 9170 fluorescence intensity (a.u.)
TGCCATTTGTATGTATGTATTTCTCTCTGATAACCAAAGTCGGAGTCACCTAGTGCAG | 9700 fluorescence intensity (a.u.)
GATTCTACTGCCCCGTTGACTAATTGTCTTCGTCAGGATCCGGAGTCACCTAGTGCAG | 17900 fluorescence intensity (a.u.)
ATTGTTCAGCTGTTTTTTTTTTGTGTGGGTTTCTAGATTTCGGAGTCACCTAGTGCAG | 12200 fluorescence intensity (a.u.)
CGAAGTATACTTTACCTTTTTCTTTTTAGGTCCTTTATATCGGAGTCACCTAGTGCAG | 9260 fluorescence intensity (a.u.)
AAAAATACCAGTCCAATCCAAACCCTTTTTTCTTTTTTTTCGGAGTCACCTAGTGCAG | 9160 fluorescence intensity (a.u.)
CTATAAATATTTGGGTGGGGTTACTGAATTTTAAAGAACGCGGAGTCACCTAGTGCAG | 13700 fluorescence intensity (a.u.)
CGCCCGCCGCTCGGCCGCGCCCATCTGCTCTCTGCCAGCCCGGAGTCACCTAGTGCAG | 8550 fluorescence intensity (a.u.)
TGTCCTCACACCACCTCGTCCCTATCCATGATCGCGTCCCCGGAGTCACCTAGTGCAG | 8090 fluorescence intensity (a.u.)

Some of the entries above in another layout.
TGAGTAGGGTTAAGGTGTCTTCGTGTGTATTTTGTTCAATCGGAGTCACCTAGTGCAG
  binding signal = 8600 fluorescence intensity (a.u.)
ATGTGTCCGTGTCCATCCATATCCACGCCGGGCACAGCAACGGAGTCACCTAGTGCAG
  binding signal = 9020 fluorescence intensity (a.u.)
TCTCCTCTCTCTTCTCTTCTCTCTCTCCGATCCGGATCTTCGGAGTCACCTAGTGCAG
  binding signal = 8550 fluorescence intensity (a.u.)
GATCTCTCCACTGGGCCCACCTCGTCTCTCGTCATTCGCCCGGAGTCACCTAGTGCAG
  binding signal = 12100 fluorescence intensity (a.u.)

(continued)

Sequence | binding signal
TACGACTACTCACTTTTTTTCTCGACCACACATATATGTTCGGAGTCACCTAGTGCAG | 10300 fluorescence intensity (a.u.)
CCACCTCCACCTTGACCTCCTCCTTCTTCAGCCCCGGCACCGGAGTCACCTAGTGCAG | 8600 fluorescence intensity (a.u.)
GCTCTGACGCACGTGACCTCTCTTTCTCCTCGAGCGCAGCCGGAGTCACCTAGTGCAG | 10200 fluorescence intensity (a.u.)
CGTCGTCCCTATAATTGCTCGCCGCCATCGTTCCTGTTCGCGGAGTCACCTAGTGCAG | 8580 fluorescence intensity (a.u.)
GATCTTCGGCCGAGTTTAGTTCCAAACTTTTTCTTCAAACCGGAGTCACCTAGTGCAG | 8660 fluorescence intensity (a.u.)
TCTACACCTCATTTTCCGCTTGCATCTTGCTCATTCAGATCGGAGTCACCTAGTGCAG | 9920 fluorescence intensity (a.u.)
GGAGCCGCCGCGGCCGTCCTCCTTCTTCCCCACCGCCGCGCGGAGTCACCTAGTGCAG | 8740 fluorescence intensity (a.u.)
ACTGCCCTTTTGCTATCAGTTTCTGGCAAGCACTTCATATCGGAGTCACCTAGTGCAG | 10500 fluorescence intensity (a.u.)
CCCCGATCCCCACGACGCGCCGCCGCCCCGCACCGAGATGCGGAGTCACCTAGTGCAG | 8840 fluorescence intensity (a.u.)
TTAACCACCGCCGCGTCCCATTCCCAAGTCCCACCACCACCGGAGTCACCTAGTGCAG | 9920 fluorescence intensity (a.u.)
CGCATATTTGATCTTTTCATGTTATACTGTGTAGTTTACACGGAGTCACCTAGTGCAG | 12000 fluorescence intensity (a.u.)
TTACCACCTCCACCTCGCGCACTCAGTCTGTACTACCTGTCGGAGTCACCTAGTGCAG | 8720 fluorescence intensity (a.u.)
TGGGTAATTTCGTGTGGATGGTGGCGGCGGCGGCGGCGGCCGGAGTCACCTAGTGCAG | 12800 fluorescence intensity (a.u.)
TATATTTGACCATTTCCTATCATTTAATTCATTGTTATATCGGAGTCACCTAGTGCAG | 8530 fluorescence intensity (a.u.)
GATTTCATAATGAGATATACTCCCTCCGTTTCAGGTTATACGGAGTCACCTAGTGCAG | 8260 fluorescence intensity (a.u.)
CCTGCTGACCAACCTACGCTAGCTATCTTCCTCTTGTCGTCGGAGTCACCTAGTGCAG | 11500 fluorescence intensity (a.u.)
CTCTCTCTTCCGTTTGCTATATATTGGCACTTAATTAACACGGAGTCACCTAGTGCAG | 8680 fluorescence intensity (a.u.)
TCCTCGCGCTCCCAGCCTTTCTTTGCACACGCCACACACCCGGAGTCACCTAGTGCAG | 8050 fluorescence intensity (a.u.)
GCCGCCTACTCCAACCACAGCCTGTGTGACAGCCCGTGGACGGAGTCACCTAGTGCAG | 8420 fluorescence intensity (a.u.)
ACCCTTCTGTTGTTCTTAGTCCCCTCTGCTGCAAGAAGGCCGGAGTCACCTAGTGCAG | 8570 fluorescence intensity (a.u.)
GGGTTGGTGGTGATTTTTTTTTGTTCGCCCAAAATATTTTCGGAGTCACCTAGTGCAG | 12800 fluorescence intensity (a.u.)

Single entries from the results shown.
In binding signal, TTAACCACCGCCGCGTCCCATTCCCAAGTCCCACCACCACCGGAGTCACCTAGTGCAG has the entry 9920 fluorescence intensity (a.u.)
In binding signal, CGTCGTCCCTATAATTGCTCGCCGCCATCGTTCCTGTTCGCGGAGTCACCTAGTGCAG has the entry 8580 fluorescence intensity (a.u.)
In binding signal, GATCTTCGGCCGAGTTTAGTTCCAAACTTTTTCTTCAAACCGGAGTCACCTAGTGCAG has the entry 8660 fluorescence intensity (a.u.)
